# Laboratory results taken from PMC7819943, “Rice protein-binding microarrays: a tool to detect cis-acting elements near promoter regions in rice”.
# The chains behind the UniProt entries cited, without tags or fusion partners.
# UniProt Q0JBA9, entry or part of it: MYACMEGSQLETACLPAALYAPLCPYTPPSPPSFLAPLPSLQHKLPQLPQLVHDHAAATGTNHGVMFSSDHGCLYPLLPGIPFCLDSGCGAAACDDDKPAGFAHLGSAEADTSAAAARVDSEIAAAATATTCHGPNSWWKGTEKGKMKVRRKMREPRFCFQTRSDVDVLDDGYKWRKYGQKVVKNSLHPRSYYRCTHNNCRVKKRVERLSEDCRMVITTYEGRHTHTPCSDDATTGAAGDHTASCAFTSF
# Some of the results follow.
# Target: OsWRKY34 (Oryza sativa, UniProt Q0JBA9 1-250)
# Experiment: protein-binding microarray (RPBM); PBS, 2% BSA, 51.3 ng/ul salmon testes DNA, 50 uM zinc acetate, 200 nM TF, 25 C, 1 h; high values mean tight binding
# Details: protein: recombinant; tags: N-terminal polyhistidine and DsRed monomer fusion (pET32a); label: CyDye5-dUTP incorporated in the synthesized complementary strand; 3' TTTTT single-stranded linker to array surface; dsDNA, one strand shown
# Summary of the method: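 Transcription factors, each fused N-terminally to a polyhistidine tag and DsRed, were expressed in E. coli BL21-CodonPlus and purified on Ni–NTA. A custom Agilent array was made double-stranded by primer extension with Cy5-dUTP and blocked with 2% BSA. It was incubated with 200 nM protein in PBS, 2% BSA, salmon testes DNA and 50 µM zinc acetate at 25 °C for 1 h, then washed. The binding signal is per-feature fluorescence intensity (arbitrary units) read on an Axon 4000B scanner.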
row,Sequence,binding signal
1,TAGGATGTGAGTACGGGGTTGGCTTATTTTGGAATAGAGTCGGAGTCACCTAGTGCAG,12400 fluorescence intensity (a.u.)
2,GCTTTTGCGTCGGACCTGCCGCACCGCCACCTGCGATGACCGGAGTCACCTAGTGCAG,11900 fluorescence intensity (a.u.)
3,ACACCGCCCACTCTTGCAGAATTCTTCCTCTCCGCTTCTCCGGAGTCACCTAGTGCAG,8930 fluorescence intensity (a.u.)
4,CTAGCCAACTGCGCCACCACCCCATCGATGTCCAATGGTACGGAGTCACCTAGTGCAG,8120 fluorescence intensity (a.u.)
5,CCCTCCTCTCCGCGCGCGCCACCTGTCCATCCGCGCGGAGCGGAGTCACCTAGTGCAG,8970 fluorescence intensity (a.u.)
6,CTATTTTGCGATGTGTATTTTCCAAAACCGATTCCATAATCGGAGTCACCTAGTGCAG,8180 fluorescence intensity (a.u.)
7,GCCACGAAGCCATGGCGGCGCCGTCCTCCCTCGCGTCGTCCGGAGTCACCTAGTGCAG,8520 fluorescence intensity (a.u.)
8,GTTTGTCTTGATTTATTGCTAGGATTTGAATTTTTTTTGACGGAGTCACCTAGTGCAG,9340 fluorescence intensity (a.u.)
9,ATAGTTCACCTGTATATGCGTAAATCAATGGTTCAATGTTCGGAGTCACCTAGTGCAG,9110 fluorescence intensity (a.u.)
10,CGTCGACGACGTCTCGATCGATCGGTGGTGGTGGTGGTGGCGGAGTCACCTAGTGCAG,8540 fluorescence intensity (a.u.)
11,CACGTCACCTGCATATGCCCTTCTTCCTCGCCGGCCACACCGGAGTCACCTAGTGCAG,11000 fluorescence intensity (a.u.)
12,GCGCCAGTCCAACGCCGGTCAGGAATTATATCTCTCTCTTCGGAGTCACCTAGTGCAG,9930 fluorescence intensity (a.u.)
13,TAGATATGGTTTTGCTGTTAGGGGACGATTTTTTAACTCGCGGAGTCACCTAGTGCAG,10400 fluorescence intensity (a.u.)
14,CACCGTTGATTTTTTTAAATATGTTTGACCGTTCGTTTTACGGAGTCACCTAGTGCAG,12000 fluorescence intensity (a.u.)
15,AGTGGATGAGTTTGAGTTTTAGGATTTAGTGGGGTATTATCGGAGTCACCTAGTGCAG,15100 fluorescence intensity (a.u.)
16,ATTTTCGTGTTATTTTTGGTTCTGGTTGATTGATCGATTTCGGAGTCACCTAGTGCAG,12900 fluorescence intensity (a.u.)
17,TCTGTTTTTGCTCTGTTTTTCTATGTTGTCGTATTTTCGTCGGAGTCACCTAGTGCAG,15300 fluorescence intensity (a.u.)
18,GCTGCTCACATTCTCATCATCGCATACACACACTTAACTTCGGAGTCACCTAGTGCAG,11500 fluorescence intensity (a.u.)
19,TCATTGTTCTCACTTCCTCGTCTTGAGCACTTGAGTCTCTCGGAGTCACCTAGTGCAG,8420 fluorescence intensity (a.u.)
20,ACATCCATCCACTCAACCCATTCTACCGTATTAAGCCAATCGGAGTCACCTAGTGCAG,8192 fluorescence intensity (a.u.)
21,CCTGTCCTACGTAGCATCACATATTCGTTGTTTTTTGTTTCGGAGTCACCTAGTGCAG,11300 fluorescence intensity (a.u.)

row,Sequence,binding signal
1,CATCAGTCGCTTAATAATGCGCTTTCCTTCACCGGATTATCGGAGTCACCTAGTGCAG,8310 fluorescence intensity (a.u.)
2,CTGCGTCGGTTCTGAGTTTGCTTCGTCTCCGGGCTCGCTGCGGAGTCACCTAGTGCAG,13700 fluorescence intensity (a.u.)
3,TGGTGTGATGTGTCGTGGGTTTAAGGGACAAATAAGAAAACGGAGTCACCTAGTGCAG,8710 fluorescence intensity (a.u.)
4,TAAGCGAAGCACTACTGTTCACTTTCAGGCCTCATAACTGCGGAGTCACCTAGTGCAG,8600 fluorescence intensity (a.u.)
5,CAACCACACCAAACGCAACCCGTTCCTACCAAGATTCTCTCGGAGTCACCTAGTGCAG,8940 fluorescence intensity (a.u.)
6,GTCGGTTTTTAAGTTCATTCGCTTTTGGAAATACAAATCCCGGAGTCACCTAGTGCAG,11100 fluorescence intensity (a.u.)
7,CGGTAGAAAGCCCACCACTCGCTCGCCAGTTCGTCGTCCTCGGAGTCACCTAGTGCAG,10500 fluorescence intensity (a.u.)
8,GTTGAGGTTAGCCTTCATTTTTTTTTCTTGTGGTATATATCGGAGTCACCTAGTGCAG,10000 fluorescence intensity (a.u.)
9,TCACAACCTTTCCTTGTGTATAGCCATATTTGCACATTTACGGAGTCACCTAGTGCAG,9220 fluorescence intensity (a.u.)
10,TTTCTACGGGTTGTGGGCTAGGGTTTCGATCGGTTTGGAGCGGAGTCACCTAGTGCAG,11900 fluorescence intensity (a.u.)
11,ACGCACCCCGTTCCTAACGCTACCTTGTTTTGCCTATGTACGGAGTCACCTAGTGCAG,9230 fluorescence intensity (a.u.)
12,ACGCTGTTGATTTTTTTAAACATGTTTGACCGTTCGTCTTCGGAGTCACCTAGTGCAG,13200 fluorescence intensity (a.u.)
13,CTCGTTCTGCACTACTACTCGGCCACCATTTCCTTTCCTTCGGAGTCACCTAGTGCAG,12900 fluorescence intensity (a.u.)
14,GTTAGCCCAGCCAGCGATTTCACCATCTCATCTCATCTCACGGAGTCACCTAGTGCAG,9860 fluorescence intensity (a.u.)
15,TGCCTGTGTCTGTGTGTGTGTTCTACTCCTACCATGAGAGCGGAGTCACCTAGTGCAG,8690 fluorescence intensity (a.u.)
16,TTCACCCTCACTTTATTCATCTATAGTAGTTTCATCAGTTCGGAGTCACCTAGTGCAG,8060 fluorescence intensity (a.u.)
17,TTCGGGCCCAGGTCGTCCCATGCACCATAACCGTTTGCTCCGGAGTCACCTAGTGCAG,10500 fluorescence intensity (a.u.)
18,TTTAAAAAATTTTGTGTGGTTGTGTGGTGTACTGTAGTAGCGGAGTCACCTAGTGCAG,8280 fluorescence intensity (a.u.)
19,GATATTGGAGGTGCATCTGTTAGGGTTCGGGTTCTCTCTACGGAGTCACCTAGTGCAG,16700 fluorescence intensity (a.u.)
20,ATATGCCCATTGTTTGTTTGTTTATCCGTCGTAATCTCTCCGGAGTCACCTAGTGCAG,9570 fluorescence intensity (a.u.)
21,ATTGTTTGTTCTTCAGCTACTGTTTCAAGTTTACACGTACCGGAGTCACCTAGTGCAG,12300 fluorescence intensity (a.u.)

# Some of the entries above, reformatted.
row	Sequence	binding signal
19	GATATTGGAGGTGCATCTGTTAGGGTTCGGGTTCTCTCTACGGAGTCACCTAGTGCAG	16700 fluorescence intensity (a.u.)
20	ATATGCCCATTGTTTGTTTGTTTATCCGTCGTAATCTCTCCGGAGTCACCTAGTGCAG	9570 fluorescence intensity (a.u.)
21	ATTGTTTGTTCTTCAGCTACTGTTTCAAGTTTACACGTACCGGAGTCACCTAGTGCAG	12300 fluorescence intensity (a.u.)
